Measurements taken from PubChem BioAssay AID743402 (Broad Institute, 2014).
The whole screen tested about 1,200 compounds, of which about 140 (12%) were called active. All entries are inconclusive by the source's own rule. Clear calls are listed elsewhere.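 The calls were made as follows: active = fitted curve falls past -35% activity change at a dose under twice the top valid dose, in every replicate test; inconclusive = replicate tests disagree on the call; inactive = the rest, including activity in the opposite direction.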

Test: CFTR-F508del correctors, dose response, FRT cells, YFP quenching, cherry-pick (AID 743402);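 also: compounds act as correctors raising surface CFTR-F508del before acute activation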
Details: FRT CFTR-F508del YFP iodide quenching, 24 h, channel opened with forskolin and a potentiator; at 26 µM (top of the series)

For `C[C@]12C=CC(=O)C=C1CC[C@@H]1C2[C@@H](O)C[C@@]2(C)C1CC[C@]2(O)C(=O)COC(=O)CCC(=O)O` (some centres not stated), which activity change, negative = more quenching (active) is on record?
The activity change, negative = more quenching (active) was inconclusive: -33.5%.

With `C[C@H]1C[C@H]2[C@@H]3CCC4=CC(=O)C=C[C@]4(C)[C@@]3(F)[C@@H](O)C[C@]2(C)[C@@]1(O)C(=O)CO` as the molecule, how does the activity change, negative = more quenching (active) read?
Its activity change, negative = more quenching (active) is inconclusive: -26.7%.
